Reference: patent US20110306105A1 (University of California, published 2011)
These are yes or no findings as the source states them, for the method shown. Some results given as binding are weak or reduced against the parent protein; the word gives no strength. Where a sequence is shown, tags or fusion partners need not be part of it.

Key:
[1] = target: scaffoldin Scaf-c displayed on the yeast cell surface (chimeric: C. cellulolyticum cohesin with a CBD); assay: immunofluorescence microscopy with anti-His6, yeast displaying Scaf-c
[2] = target: scaffoldin Scaf-ct displayed on the yeast cell surface (chimeric: C. cellulolyticum, C. thermocellum); assay: immunofluorescence microscopy with anti-His6, yeast displaying Scaf-ct

B1: exoglucanase CelE from C. cellulolyticum fused to a dockerin domain from the same species (Ec), His6-tagged (enzyme)
chain: MLVGAGDLIRNHTFDNRVGLPWHVVESYPAKASFEITSDGKYKITAQKIGEAGKGERWDIQFRHRGLALQQGHTYTVKFTVTASRACKIYPKIGDQGDPYDEYWNMNQQWNFLELQANTPKTVTQTFTQTKGDKKNVEFAFHLAPDKTTSEAQNPASFQPITYTFDEIYIQDPQFAGYTEDPPEPTNVVRLNQVGFYPNADKIATVATSSTTPINWQLVNSTGAAVLTGKSTVKGADRASGDNVHIIDFSSYTTPGTDYKIVTDVSVTKAGDNESMKFNIGDDLFTQMKYDSMKYFYHNRSAIPIQMPYCDQSQWARPAGHTTDILAPDPTKDYKANYTLDVTGGWYDAGDHGKYVVNGGIATWTVMNAYERALHMGGDTSVAPFKDGSLAIPEAEVYPDILDEARYQLINMKTLLNSQVPAGKYAGMAHHKAHDERWTALAVRPDQDTMKRWLQPPSTAATLNLAAIAAQSSRLWKQFDSAFATKCLTAAETARDAAVAHPEIYATMEQGAGGGAYGDNYVLDDFYWAACELYATTGSDKYLNYIKSSKHYLEMPTELTGGENTGITGAFDWGCTAGMGTITLALVPTKLPAADVATAKANIQAAADKFISISKAQGYGVPLEEKVISSPFDASVVKGFQWGSNSFVINEAIVMSYAYEFSDVNGTKNNKYINGALTAMDYLLGRNPNIQSYITGYGDNPLENPHHRFWAYQADNTFPKPPPGCLSGGPNSGLQDPWVKGSGWQPGERPAEKCFMDNIESWSTNEITINWNAPLVWISAYLDEKGPEIGGSVTPPTNLGDVNGDGNKDALDFAALKKALLSQDTSTINVANADINKDGSIDAVDFALLKSFLLGKITQHHHHHH
notes: Expressed in E. coli and used as cell lysate or purified; also called CelE-Dc
[1]
  binding: binds
[2]
  binding: binds
